No constants are given. Whether binding was seen depends on the method and setting. Binding can be weak; no strength is given.
Target: IL-32 (isotype not stated, analyte of the SPR experiment) (UniProt P24001)
Assay: SPR, IL-32 injected at 100 to 1.23 nM (FIG. 8)

By UniProt entry, the sequences of proteins in these tests, tags left out. Where a name states a change or a piece, a line headed by the entry shows the natural chain unless it says otherwise.
UniProt P24001: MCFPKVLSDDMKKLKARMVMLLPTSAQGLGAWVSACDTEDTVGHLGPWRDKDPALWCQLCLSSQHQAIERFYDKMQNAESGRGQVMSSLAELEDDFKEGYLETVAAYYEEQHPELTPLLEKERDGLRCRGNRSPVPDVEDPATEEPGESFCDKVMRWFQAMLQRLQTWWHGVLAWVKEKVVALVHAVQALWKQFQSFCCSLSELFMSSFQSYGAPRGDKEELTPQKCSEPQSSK

binding: binds
B1: anti-IL-32 antibody 2C2 (IgG3, lambda) (antibody, V domains shown)
VH: QLRVQESGPGLLKPAETLSLTCSVSSGSVSNSRYYWAWIRQSPGKGLEWIGSMYYRGRSYYNPSLKSRLTISIDTSKNQFSLKLTSLTAADTAVYYCAAAVYHDLDYWGQGTLVTVSS
VL: QSVLTQPPSVSAAPGQKVTISCSGSGSSIGNNYVSWYQQLPGAAPKLLIYDNTKRPSGIPDRFSGSKSGTSATLAITGLQPGDAADYYCGTWDSSFSVFWVFGGGTKLTVLS
